The list shows a part of the results. The main result of the screen is listed elsewhere. These columns were measured beside it and carry no call. Compounds called inactive in the main read-out are mostly missing here. Potencies come from curve fits of mixed quality, noted in brackets.
Assay: qHTS Assay for Lipid Storage Modulators in Drosophila S3 Cells;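 on cell number change: cells counted by Cell Tracker Red CMTPX staining in the red channel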
Settings: BODIPY lipid droplet fluorescence, 18-24 h; for cell number change: measured here: cell count max response, cells fed with added oleic acid
Procedure, shortened: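 Drosophila S3 cells got compounds at several concentrations plus oleic acid (400 uM solution). Laser-scanning cytometry with 488 nm excitation read lipid droplets at 500-530 nm and cells at 575-640 nm. Percent activity was relative to 20 uM Triacsin C.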

[1] = measured here: lipid fluorescence (Fed channel) AC50, cells fed with added oleic acid
[2] = measured here: cell number channel AC50, cells fed with added oleic acid

SMILES	AC50 [1]	cell number change [%]	AC50 [2]
CCS(=O)(=O)Nc1cccc(-c2ccc3nnc(-c4cccnc4)n3n2)c1	5.17 µM [falling, full curve]	–	–
O=C(Nc1nccs1)C1CC(=O)N(c2ccc(Cl)cc2)C1 (configuration not stated)	0.13 µM [falling, full curve, poor fit]	-0.452	–
Cc1ccccc1C(=O)NC(=S)Nc1ccc(Cc2ccncc2)cc1	9.2 µM [rising, partial curve]	19.6	–
O=C(Nc1ccc(Cl)cc1)c1cc2c(cc1O)[nH]c1ccccc12	13 µM [falling, partial curve]	-54.6	8.2 µM [falling, partial curve]
OC(COCc1ccccc1)CN1CCN(Cc2ccc3c(c2)OCO3)CC1 (configuration not stated)	0.0461 µM [falling, partial curve]	-52.9	–
Cc1ccc(S(=O)(=O)N2CC(=O)NC(=O)C2)cc1	6.51 µM [falling, partial curve, poor fit]	0.435	–
COc1ccc(/C=N/NC(=S)Nc2ccccc2)cc1	29.1 µM [falling, single point]	-13.3	–
COc1ccccc1Nc1nc2ccccc2[nH]1	7.31 µM [rising, partial curve]	–	–
CCc1ccc(N2CC(C(=O)Nc3ccc4c(c3)OCO4)CC2=O)cc1 (configuration not stated)	0.184 µM [rising, full curve, poor fit]	4.54	–
CCOC(=O)CSc1nnc(-c2ccc([N+](=O)[O-])cc2)o1	6.51 µM [rising, single point]	24.8	–
S=C(NCc1ccco1)N/N=C/c1cccnc1	9.2 µM [rising, partial curve, poor fit]	21.3	–
Cc1ccc(S(=O)(=O)N(C)CC(=O)Nc2ccc3c(c2)OCO3)cc1	14.6 µM [rising, partial curve]	4.44	–
Clc1ccc(-c2nc(Cc3ccccc3)no2)cc1	0.00461 µM [falling, full curve, poor fit]	56.3	29.1 µM [rising, single point]
C/C(CCc1ccccc1)=N\NC(=S)NCCc1ccccc1	29.1 µM [falling, single point]	-2.7	–
CCCC(=O)NC(c1ccc(OC)c(OC)c1)c1c(O)ccc2ccccc12 (configuration not stated)	0.0082 µM [falling, full curve, poor fit]	-13.1	–
COc1ccc(CNC(=O)c2cc3c(C)nc4ccccc4c3o2)c(OC)c1	0.366 µM [rising, partial curve, poor fit]	-54.3	20.6 µM [falling, single point]
Cc1nc(N(C)C)c2sc(=S)n(C)c2n1	6.51 µM [rising, single point]	–	–
CCCCCn1c(=O)c2ccccc2n2c(=S)[nH]nc12	29.1 µM [falling, single point]	-25.1	–
O=C(Cc1n[nH]c(=O)[nH]c1=O)N/N=C/c1ccccc1	0.058 µM [falling, partial curve, poor fit]	-3.81	–
N#Cc1c(-c2ccccc2)nc(SCc2cccc(C(F)(F)F)c2)[nH]c1=O	18.4 µM [falling, single point]	-37.4	20.6 µM [falling, single point]

SMILES	AC50 [1]	cell number change [%]	AC50 [2]
CCNC(=O)C1CC(=O)N(c2ccc(Br)cc2)C1 (configuration not stated)	23.1 µM [rising, single point]	-4.69	–
Cc1cc(NC(=O)c2ccccc2)ccc1NC(=O)Cc1ccccc1	29.1 µM [falling, single point]	15	–
CC(=O)Nc1c(C(=O)N2CCCCCC2)cnn1-c1ccccc1	3.26 µM [rising, single point]	-88.8	29.1 µM [falling, single point]
O=S(=O)(Nc1cc(Sc2cccc3cccnc23)c(O)c2ccccc12)c1ccc(F)cc1	4.61 µM [falling, full curve]	-43.2	11.6 µM [falling, partial curve]
NS(=O)(=O)c1ccc(CCNC(=O)Cc2ccc(Cl)cc2)cc1	–	-22	–
COc1ccc(N2CCN(CC(=O)NCc3ccccc3)CC2)cc1	–	9.59	3.66 µM [falling, partial curve, poor fit]
O=C(NN1CCOCC1)c1cc(-c2cccs2)nc2ccccc12	–	30.1	25.9 µM [rising, single point]
COc1ccc(Cn2c(=O)[nH]c3cc(C(=O)NCCCN4CCCC4=O)ccc3c2=O)cc1	18.4 µM [rising, single point]	1.35	–
C/C(=N/NC(=O)c1ccncc1)c1ccc(NC(=O)c2ccccc2)cc1	–	19.6	–
Cc1ccccc1CC(=O)N1CCCC1	29.1 µM [rising, single point]	-5.56	–
O=C(c1cc(COc2ccc(F)cc2Cl)on1)N1CC2C[C@@H]3CC1C[C@H](C2)C3	5.17 µM [falling, single point]	-65.3	18.4 µM [falling, single point]
COc1c(/C=N/Nc2ccc(C(=O)O)cc2)c(CCN(C)C(C)=O)cc2c1OCO2	–	26.6	0.731 µM [rising, full curve, poor fit]
COc1ccc(/C=C2\SC(N)=NC2=O)cc1Br	29.1 µM [falling, single point]	5.87	–
COc1cccc(NC(=O)CN(C)S(=O)(=O)c2ccc3[nH]c(=O)oc3c2)c1	0.13 µM [falling, single point]	13.9	–
O=[N+]([O-])c1ccccc1CN1CCN(Cc2ccccn2)CC1	–	2.94	–
CCCNC(=O)C1CCN(S(=O)(=O)c2c(C)noc2/C=C\c2ccc(OC)cc2)CC1	2.91 µM [rising, partial curve]	46.3	5.8 µM [rising, partial curve]
CC1CCCN(C(=O)CCc2nnc(-c3ccc4c(c3)OCO4)o2)C1 (configuration not stated)	20.6 µM [rising, partial curve]	27.7	–
CCOC(=O)C1=C(C)N=C(SC)N(C)C1c1ccccc1 (configuration not stated)	0.291 µM [falling, full curve]	-18.2	–
COc1ccc(NC(=O)CSc2nnc(-c3ccncc3)o2)c(OC)c1	0.0058 µM [rising, full curve, poor fit]	2.75	–
O=C(c1ccco1)N1CCN(Cc2cc(=O)c(OCc3ccccc3)co2)CC1	–	-25	4.61 µM [falling, full curve, poor fit]

SMILES	AC50 [1]	cell number change [%]	AC50 [2]
O=C(CN1CCC(NC(=O)c2ccc(F)cc2)CC1)NCc1ccccc1F	–	–	0.651 µM [rising, full curve, poor fit]
CCOc1ccc(OCc2cccc(C(=O)N3CCCCCC3)c2)cc1	–	-6.67	–
CCCCC1(Cc2cccc([N+](=O)[O-])c2)C(=O)N(c2ccccc2)N(c2ccccc2)C1=O	–	-94.7	1.84 µM [rising, partial curve]
Cc1ccc(S(=O)(=O)N2CCN(CC(=O)N/N=C\c3ccc(O)c(O)c3)CC2)cc1	29.1 µM [rising, single point]	38.6	18.4 µM [rising, partial curve, poor fit]
CCC(C)N(C(=O)CSc1ccc(NC(C)=O)cc1)C1CCS(=O)(=O)C1 (configuration not stated)	14.6 µM [falling, partial curve, poor fit]	-29.5	4.11 µM [falling, full curve, poor fit]
CC(Oc1ccc(Cl)cc1Cl)c1ccnc2nc(N3CCOCC3)nn12 (configuration not stated)	–	112	–
COc1ccc(NC(=O)CSCC(=O)Nc2sccc2C#N)cc1	2.59 µM [rising, partial curve]	–	–
Cc1cccc(N2CCN(C(=O)c3c(C)nn(Cc4ccccc4Cl)c3C)CC2)c1C	6.51 µM [rising, single point]	–	6.51 µM [rising, single point]
CCCc1cc(=O)[nH]c(SCC(=O)NCCC2=CCCCC2)n1	3.66 µM [falling, single point]	11.6	–
COc1ccc(-n2c(=S)[nH]c3cc(C(=O)Nc4ccccc4OC)ccc3c2=O)c(OC)c1	–	20.9	–
Cc1ccc([N+](=O)[O-])cc1S(=O)(=O)Nc1ccc(C(=O)N2CCN(C(=O)c3ccco3)CC2)cc1	0.206 µM [falling, full curve]	-61.5	7.31 µM [falling, partial curve]
O=C1CC(c2ccccc2)CC(=O)N1c1ccc(C(F)(F)F)cc1	–	-52.9	0.58 µM [falling, partial curve, poor fit]
Cn1c(=O)oc2cc(S(=O)(=O)NCCN3CCN(c4ccccc4)CC3)ccc21	0.00411 µM [falling, full curve, poor fit]	-35.5	2.31 µM [falling, partial curve, poor fit]
CCOC(=O)C(C)n1ncn2cccc2c1=O (configuration not stated)	0.651 µM [rising, single point]	0.176	–
O=C(/C=C/Nc1ccccc1)c1ccc(Oc2ncccn2)cc1	14.6 µM [rising, partial curve, poor fit]	18.4	–
COc1ccc(-c2nc(N)nc(C)c2Oc2ccccc2Br)c(O)c1	6.51 µM [falling, full curve]	11.3	5.17 µM [falling, partial curve]
COC(=O)/C=C(\C)NC(=O)c1ccccc1Cl	–	-9.78	–
Cc1nn(CC(=O)OCC(=O)Nc2ccccc2[N+](=O)[O-])c(C)c1[N+](=O)[O-]	0.00461 µM [falling, full curve, poor fit]	23	–

An excerpt from above in order of molecular weight, rising:
SMILES	AC50 [1]	cell number change [%]	AC50 [2]
COC(=O)/C=C(\C)NC(=O)c1ccccc1Cl	–	-9.78	–
Cc1ccccc1C(=O)NC(=S)Nc1ccc(Cc2ccncc2)cc1	9.2 µM [rising, partial curve]	19.6	–
COc1c(/C=N/Nc2ccc(C(=O)O)cc2)c(CCN(C)C(C)=O)cc2c1OCO2	–	26.6	0.731 µM [rising, full curve, poor fit]

Source: PubChem BioAssay AID2685 (National Center for Advancing Translational Sciences (NCATS), 2010)
